Patent publication US20040209264A1
No constants are given. Whether binding was seen depends on the method and setting. For some of these results: In cells and extracts the contact can be indirect. Some results given as binding are weak or reduced against the parent protein; the word gives no strength.

Amino acid sequences for entries named in this document (tags omitted). A change or cut given only in a name is not applied to a line headed by its entry.
UniProt P0A7C2: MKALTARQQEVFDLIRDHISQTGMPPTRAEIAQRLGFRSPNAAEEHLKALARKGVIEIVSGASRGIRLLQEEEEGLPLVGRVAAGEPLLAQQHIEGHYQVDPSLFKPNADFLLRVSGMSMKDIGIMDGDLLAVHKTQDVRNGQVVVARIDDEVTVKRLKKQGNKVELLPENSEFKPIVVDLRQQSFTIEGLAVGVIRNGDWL

Tests used:
[1] = molecular target: T1, Drosophila Legless (Lgs) (Drosophila) (UniProt Q961D9); assay: summary of the yeast two-hybrid and pull-down results
T1 sequence (looked up): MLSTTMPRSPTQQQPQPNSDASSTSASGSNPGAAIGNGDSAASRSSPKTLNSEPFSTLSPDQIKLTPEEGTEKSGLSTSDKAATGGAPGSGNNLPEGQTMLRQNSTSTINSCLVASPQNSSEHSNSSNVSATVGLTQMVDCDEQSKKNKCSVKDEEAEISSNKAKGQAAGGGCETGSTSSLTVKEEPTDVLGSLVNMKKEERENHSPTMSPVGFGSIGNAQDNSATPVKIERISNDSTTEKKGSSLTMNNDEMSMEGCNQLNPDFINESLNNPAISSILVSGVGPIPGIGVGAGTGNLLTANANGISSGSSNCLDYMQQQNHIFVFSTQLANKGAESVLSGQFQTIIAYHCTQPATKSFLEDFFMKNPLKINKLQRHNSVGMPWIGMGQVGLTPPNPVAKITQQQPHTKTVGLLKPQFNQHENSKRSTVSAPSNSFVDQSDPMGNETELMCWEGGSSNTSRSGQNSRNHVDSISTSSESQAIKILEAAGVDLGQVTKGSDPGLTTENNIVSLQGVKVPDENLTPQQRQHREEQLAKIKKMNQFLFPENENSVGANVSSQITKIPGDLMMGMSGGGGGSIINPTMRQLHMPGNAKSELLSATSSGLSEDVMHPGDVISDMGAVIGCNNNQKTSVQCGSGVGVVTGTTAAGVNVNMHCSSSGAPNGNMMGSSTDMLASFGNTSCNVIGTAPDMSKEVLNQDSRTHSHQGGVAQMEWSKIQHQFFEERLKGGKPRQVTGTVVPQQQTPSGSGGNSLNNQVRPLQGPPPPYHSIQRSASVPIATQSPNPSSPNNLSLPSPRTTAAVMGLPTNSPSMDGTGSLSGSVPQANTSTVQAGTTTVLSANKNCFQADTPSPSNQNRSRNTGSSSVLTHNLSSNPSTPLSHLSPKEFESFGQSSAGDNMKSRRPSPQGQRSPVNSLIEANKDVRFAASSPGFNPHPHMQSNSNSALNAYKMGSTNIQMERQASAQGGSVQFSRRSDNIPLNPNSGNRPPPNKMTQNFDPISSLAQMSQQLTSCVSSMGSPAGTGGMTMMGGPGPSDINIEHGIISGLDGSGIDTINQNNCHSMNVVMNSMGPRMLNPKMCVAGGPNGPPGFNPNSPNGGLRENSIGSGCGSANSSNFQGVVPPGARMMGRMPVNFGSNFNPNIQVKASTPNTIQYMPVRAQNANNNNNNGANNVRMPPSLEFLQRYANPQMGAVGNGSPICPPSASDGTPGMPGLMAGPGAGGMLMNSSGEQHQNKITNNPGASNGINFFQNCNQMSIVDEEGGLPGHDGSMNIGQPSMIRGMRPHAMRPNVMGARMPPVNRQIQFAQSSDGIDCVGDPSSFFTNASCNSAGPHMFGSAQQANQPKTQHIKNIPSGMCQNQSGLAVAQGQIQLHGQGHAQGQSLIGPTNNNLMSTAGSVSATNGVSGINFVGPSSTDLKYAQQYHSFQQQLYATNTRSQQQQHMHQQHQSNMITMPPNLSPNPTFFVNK

[2] = molecular target: LgsFL (full-length Drosophila Legless protein of 1464 amino acids) fused to the LexA DNA-binding domain (Drosophila) (UniProt P0A7C2+Q961D9); assay: yeast two-hybrid screen, entire Lgs protein as bait
[3] = molecular target: T1, Drosophila Legless (Lgs) (Drosophila); assay: yeast two-hybrid and pull-down (FIG. 4)
[4] = molecular target: LgsN (first 732 amino acids of Drosophila Legless) fused to the LexA DNA-binding domain (Drosophila) (UniProt P0A7C2+Q961D9); assay: yeast two-hybrid screen, N-terminal half of Lgs as bait
[5] = molecular target: T2, hLgs/BCL9 (human) (UniProt O00512); assay: summary of the yeast two-hybrid and pull-down results
T2 sequence (looked up): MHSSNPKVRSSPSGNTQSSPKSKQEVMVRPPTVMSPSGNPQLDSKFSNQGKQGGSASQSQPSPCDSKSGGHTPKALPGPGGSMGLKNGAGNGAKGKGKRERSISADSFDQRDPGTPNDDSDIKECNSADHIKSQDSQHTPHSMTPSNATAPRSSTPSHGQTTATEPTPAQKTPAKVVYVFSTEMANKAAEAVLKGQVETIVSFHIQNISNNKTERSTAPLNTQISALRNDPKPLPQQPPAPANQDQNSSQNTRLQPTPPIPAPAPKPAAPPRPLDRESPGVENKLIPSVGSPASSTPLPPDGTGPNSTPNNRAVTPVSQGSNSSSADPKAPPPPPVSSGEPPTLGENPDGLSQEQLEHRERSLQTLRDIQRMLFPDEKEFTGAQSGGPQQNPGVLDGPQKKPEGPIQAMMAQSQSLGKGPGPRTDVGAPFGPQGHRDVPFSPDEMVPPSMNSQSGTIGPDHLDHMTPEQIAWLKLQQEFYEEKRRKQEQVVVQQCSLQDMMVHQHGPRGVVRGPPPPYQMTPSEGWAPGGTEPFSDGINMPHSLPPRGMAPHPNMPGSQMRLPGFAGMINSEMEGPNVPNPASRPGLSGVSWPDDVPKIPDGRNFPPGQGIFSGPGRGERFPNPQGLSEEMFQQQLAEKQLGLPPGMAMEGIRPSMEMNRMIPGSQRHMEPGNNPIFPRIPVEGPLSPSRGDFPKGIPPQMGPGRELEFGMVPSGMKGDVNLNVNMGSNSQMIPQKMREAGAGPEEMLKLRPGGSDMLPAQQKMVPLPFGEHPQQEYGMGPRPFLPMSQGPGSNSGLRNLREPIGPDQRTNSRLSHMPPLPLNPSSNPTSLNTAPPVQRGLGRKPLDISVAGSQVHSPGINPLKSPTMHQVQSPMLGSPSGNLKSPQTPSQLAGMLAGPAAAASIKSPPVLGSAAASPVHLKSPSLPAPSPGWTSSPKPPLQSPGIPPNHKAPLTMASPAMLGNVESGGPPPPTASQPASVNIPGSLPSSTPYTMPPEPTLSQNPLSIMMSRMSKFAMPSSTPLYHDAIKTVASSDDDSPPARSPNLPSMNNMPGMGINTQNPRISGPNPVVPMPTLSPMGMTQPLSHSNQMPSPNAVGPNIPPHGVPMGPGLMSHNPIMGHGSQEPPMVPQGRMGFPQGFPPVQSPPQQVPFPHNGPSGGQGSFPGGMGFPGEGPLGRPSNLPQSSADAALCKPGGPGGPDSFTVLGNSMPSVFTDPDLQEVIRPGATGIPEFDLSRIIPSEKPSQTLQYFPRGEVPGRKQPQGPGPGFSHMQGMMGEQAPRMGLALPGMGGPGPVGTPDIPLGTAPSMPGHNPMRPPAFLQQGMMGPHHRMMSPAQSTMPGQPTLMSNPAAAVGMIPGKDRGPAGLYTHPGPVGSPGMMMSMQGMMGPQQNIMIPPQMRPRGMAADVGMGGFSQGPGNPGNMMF

[6] = molecular target: T2, hLgs/BCL9 (human); assay: interaction mapping (FIG. 4d)
[7] = molecular target: T2, hLgs/BCL9 (human); assay: yeast two-hybrid and pull-down (FIG. 4)

Measured: binding

B1: Drosophila melanogaster Daughter of Legless (Doll) protein (protein)
chain: MTHNLGMAPYRLPGPAGGLCPPDFKPPPPTDIISAPSNPKKRRKTSSAANSAAAVAAAAAAAAAANSMQQQQAPPTPQDLLPPPPMGGFGDTIIASNPFDDSPQVSAMSSSAAAAMAAMNQMGGGPGGGHFGGGGPGGHPHWEDRMGMGGGPPPPPHMHPHMHPHHPGGPMGHPHGPHPHMGGPPPMRGMSPMHPHQMGPGPGVGLPPHMNHGRPGGPGGPGGPVPMGSPMGGIAGMGGMSPMGGMGGPSISPHHMGMGGLSPMGGGPNGPNPRAMQGSPMGGPGQNSPMNSLPMGSPMGNPIGSPLGPPSGPGPGNPGNTGGPQQQQQQPPQPPMNNGQMGPPPLHSPLGNGPTGHGSHMPGGPIPGPGPGPGGLVGPGGISPAHGNNPGGSGNNMLGGNPGGGNSNNNGSNTSNASNNNQNPHLSPAAGRLGVPTSMQSNGPSVSSVASSSVPSPATPTLTPTSTATSMSTSVPTSSPAPPAMSPHHSLNSAGPSPGMPNSGPSPLQSPAGPNGPNNNNSNNNNGPMMGQMIPNAVPMQHQQHMGGGPPGHGPGPMPGMGMNQMLPPQQPSHLGPPHPNMMNHPHHPHHHPGGPPPHMMGGPGMHGGPAGMPPHMGGGPNPHMMGGPHGNAGPHMGHGHMGGVPGPGPGPGGMNGPPHPHMSPHHGHPHHHHNPMGGPGPNMFGGGGGGPMGPGGPMGNMGPMGGGPMGGPMGVGPKPMTMGGGKMYPPGQPMVFNPQNPNAPPIYPCGMCHKEVNDNDEAVFCESGCNFFFHRTCVGLTEAAFQMLNKEVFAEWCCDKCVSSKHIPMVKFKC
binds: [1] | [2] | [3] | [4]

B2: human Doll protein hDOLL-1 (protein)
chain: MPAENSPAPAYKVSSHGGDSGLDGLGGPGVQLGSPDKKKRKANTQGPSFPPLSEYAPPPNPNSDHLVAANPFDDNYNTISYKPLPSSNPYLGPGYPGFGGYSTFRMPPHVPPRMSSPYCGPYSLRNQPHPFPQNPLGMGFNRPHAFNFGPHDNSSFGNPSYNNALSQNVNMPNQHFRQNPAENFSQIPPQNASQVSNPDLASNFVPGNNSNFTSPLESNHSFIPPPNTFGQAKAPPPKQDFTQGATKNTNQNSSAHPPHLNMDDTVNQSNIELKNVNRNNAVNQENSRSSSTEATNNNPANGTQNKPRQPRGAADACTTEKSNKSSLHPNRHGHSSSDPVYPCGICTNEVNDDQDAILCEASCQKWFHRICTGMTETAYGLLTAEASAVWGCDTCMADKDVQLMRTRETFGPSAVGSDA
binds: [5] | [6] | [7]
